The results in this text go back to paper PMC5915600.

By UniProt entry, the sequences of proteins in these tests, tags left out.
UniProt P26358: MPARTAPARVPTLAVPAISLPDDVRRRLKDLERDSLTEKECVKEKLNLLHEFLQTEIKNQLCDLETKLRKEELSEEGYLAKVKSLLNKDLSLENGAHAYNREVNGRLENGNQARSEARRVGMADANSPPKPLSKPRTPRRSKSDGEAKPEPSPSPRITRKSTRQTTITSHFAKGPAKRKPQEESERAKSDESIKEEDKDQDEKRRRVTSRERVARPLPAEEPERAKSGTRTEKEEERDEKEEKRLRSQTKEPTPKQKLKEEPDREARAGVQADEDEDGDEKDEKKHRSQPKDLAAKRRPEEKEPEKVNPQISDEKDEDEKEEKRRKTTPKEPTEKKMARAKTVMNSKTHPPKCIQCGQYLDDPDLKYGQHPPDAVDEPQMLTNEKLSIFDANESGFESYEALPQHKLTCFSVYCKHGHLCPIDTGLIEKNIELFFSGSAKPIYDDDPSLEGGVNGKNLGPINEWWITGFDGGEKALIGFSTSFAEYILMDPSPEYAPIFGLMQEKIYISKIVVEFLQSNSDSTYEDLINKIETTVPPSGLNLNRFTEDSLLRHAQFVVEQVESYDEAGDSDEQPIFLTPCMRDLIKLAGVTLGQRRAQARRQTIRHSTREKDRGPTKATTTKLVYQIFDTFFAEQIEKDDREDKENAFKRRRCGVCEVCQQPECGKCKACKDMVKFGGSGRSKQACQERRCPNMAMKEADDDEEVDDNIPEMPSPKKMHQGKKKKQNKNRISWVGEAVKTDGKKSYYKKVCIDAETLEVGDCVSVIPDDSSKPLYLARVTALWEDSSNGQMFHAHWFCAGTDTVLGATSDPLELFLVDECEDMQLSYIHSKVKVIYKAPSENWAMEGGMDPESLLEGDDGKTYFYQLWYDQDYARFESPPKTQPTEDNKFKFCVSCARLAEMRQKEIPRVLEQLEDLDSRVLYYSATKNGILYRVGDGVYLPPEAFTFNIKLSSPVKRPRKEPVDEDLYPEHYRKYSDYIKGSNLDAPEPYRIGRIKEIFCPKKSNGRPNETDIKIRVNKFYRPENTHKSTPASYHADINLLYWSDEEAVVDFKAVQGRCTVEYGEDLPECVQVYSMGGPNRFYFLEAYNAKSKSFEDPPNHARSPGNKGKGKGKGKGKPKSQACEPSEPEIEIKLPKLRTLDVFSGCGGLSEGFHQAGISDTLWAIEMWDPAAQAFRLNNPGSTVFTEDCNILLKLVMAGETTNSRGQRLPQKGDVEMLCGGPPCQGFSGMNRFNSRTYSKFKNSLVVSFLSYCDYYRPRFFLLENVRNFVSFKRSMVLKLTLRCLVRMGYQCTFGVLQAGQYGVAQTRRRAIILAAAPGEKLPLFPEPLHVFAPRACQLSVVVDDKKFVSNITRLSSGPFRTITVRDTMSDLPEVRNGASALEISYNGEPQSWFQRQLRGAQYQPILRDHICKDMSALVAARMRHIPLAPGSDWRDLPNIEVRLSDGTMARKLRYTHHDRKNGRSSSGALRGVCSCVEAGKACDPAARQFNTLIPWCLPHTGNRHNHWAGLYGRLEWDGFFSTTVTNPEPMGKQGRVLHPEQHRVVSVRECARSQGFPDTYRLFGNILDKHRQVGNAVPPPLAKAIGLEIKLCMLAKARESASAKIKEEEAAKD
UniProt Q13620: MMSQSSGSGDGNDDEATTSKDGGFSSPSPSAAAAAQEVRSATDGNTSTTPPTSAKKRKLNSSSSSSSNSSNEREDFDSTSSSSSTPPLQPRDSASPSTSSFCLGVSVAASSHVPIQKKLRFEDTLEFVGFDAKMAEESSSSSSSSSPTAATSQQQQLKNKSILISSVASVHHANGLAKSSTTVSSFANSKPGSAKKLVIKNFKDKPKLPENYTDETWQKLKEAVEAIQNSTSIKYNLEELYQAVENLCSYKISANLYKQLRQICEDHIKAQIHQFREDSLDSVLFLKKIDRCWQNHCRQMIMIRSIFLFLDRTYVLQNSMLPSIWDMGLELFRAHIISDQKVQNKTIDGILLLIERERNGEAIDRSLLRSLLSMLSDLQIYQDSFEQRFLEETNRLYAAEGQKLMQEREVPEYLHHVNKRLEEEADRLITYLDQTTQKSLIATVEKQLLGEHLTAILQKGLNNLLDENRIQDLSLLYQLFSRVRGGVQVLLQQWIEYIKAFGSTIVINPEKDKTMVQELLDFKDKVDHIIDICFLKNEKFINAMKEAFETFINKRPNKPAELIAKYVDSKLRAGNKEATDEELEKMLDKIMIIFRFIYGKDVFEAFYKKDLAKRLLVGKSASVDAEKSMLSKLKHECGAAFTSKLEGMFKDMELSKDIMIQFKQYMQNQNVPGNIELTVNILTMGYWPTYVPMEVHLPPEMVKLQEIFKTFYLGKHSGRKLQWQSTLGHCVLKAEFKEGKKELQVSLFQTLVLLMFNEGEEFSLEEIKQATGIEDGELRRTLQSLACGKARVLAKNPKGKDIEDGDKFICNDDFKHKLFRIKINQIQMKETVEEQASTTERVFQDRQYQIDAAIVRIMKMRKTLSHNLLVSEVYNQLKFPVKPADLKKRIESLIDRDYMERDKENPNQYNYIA
UniProt Q16531: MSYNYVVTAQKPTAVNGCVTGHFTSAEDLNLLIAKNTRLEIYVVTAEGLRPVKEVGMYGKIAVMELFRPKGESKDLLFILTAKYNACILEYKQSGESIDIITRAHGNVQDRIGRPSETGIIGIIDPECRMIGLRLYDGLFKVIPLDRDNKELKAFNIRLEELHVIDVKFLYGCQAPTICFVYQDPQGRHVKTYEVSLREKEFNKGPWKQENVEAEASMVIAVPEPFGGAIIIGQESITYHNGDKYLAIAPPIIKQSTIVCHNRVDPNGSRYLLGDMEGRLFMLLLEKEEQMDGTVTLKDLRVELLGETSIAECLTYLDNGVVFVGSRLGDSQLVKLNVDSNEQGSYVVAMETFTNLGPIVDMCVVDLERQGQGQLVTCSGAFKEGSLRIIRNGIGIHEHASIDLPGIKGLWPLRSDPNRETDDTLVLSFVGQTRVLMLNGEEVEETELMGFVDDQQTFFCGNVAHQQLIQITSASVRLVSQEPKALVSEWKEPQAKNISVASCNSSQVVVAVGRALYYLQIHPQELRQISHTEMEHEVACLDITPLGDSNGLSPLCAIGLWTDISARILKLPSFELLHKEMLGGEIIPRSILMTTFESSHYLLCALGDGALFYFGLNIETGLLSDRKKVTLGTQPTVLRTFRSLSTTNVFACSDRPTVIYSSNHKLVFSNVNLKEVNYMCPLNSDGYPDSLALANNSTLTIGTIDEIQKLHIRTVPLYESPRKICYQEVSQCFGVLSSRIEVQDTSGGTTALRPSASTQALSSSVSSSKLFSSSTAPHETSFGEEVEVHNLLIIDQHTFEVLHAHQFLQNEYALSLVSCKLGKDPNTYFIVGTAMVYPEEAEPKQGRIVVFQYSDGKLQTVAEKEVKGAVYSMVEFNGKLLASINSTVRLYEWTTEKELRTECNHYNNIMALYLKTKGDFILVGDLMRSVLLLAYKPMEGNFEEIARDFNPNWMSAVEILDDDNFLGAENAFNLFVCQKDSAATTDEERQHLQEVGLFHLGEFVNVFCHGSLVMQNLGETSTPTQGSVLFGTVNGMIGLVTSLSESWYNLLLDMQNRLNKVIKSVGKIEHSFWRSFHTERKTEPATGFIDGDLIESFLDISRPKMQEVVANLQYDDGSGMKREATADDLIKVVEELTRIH

Like-named read-outs stand apart in the source and are kept apart here. No constants are given. Whether binding was seen depends on the method and setting. Binding seen in cells or lysates may run through a third protein. Here binding means that the protein was enriched with, or labelled near, the bait; the list need not be complete.

The target of test [1] is Flag-DNMT1 knock-in (endogenous DNMT1 allele C-terminally tagged with the Flag epitope) (human (endogenous in HCT116)) (UniProt P26358). Kind of test: affinity purification with mass spectrometry; Flag-knock-in DNMT1 complexes from HCT116-Flag-DNMT1 lysates on anti-Flag M2 affinity gel, control HCT116 without the tag; gel bands trypsinized, LTQ Orbitrap XL.
Test [2] shares this target. Described as above. The source holds these as a separate data set.

Consider “CUL4B, endogenous (from UniProt Q13620 1-913)”, for which the binding entry in test [1] is “binds”. The same measure, in the same setting: in the case of “DDB1, endogenous (from UniProt Q16531 1-1140)” it was “binds”.

B1: L3MBTL3, endogenous (protein, UniProt Q96JM7 1-780)
chain: MTESASSTSGQEFDVFSVMDWKDGVGTLPGSDLKFRVNEFGALEVITDENEMENVKKATATTTWMVPTAQEAPTSPPSSRPVFPPAYWTSPPGCPTVFSEKTGMPFRLKDPVKVEGLQFCENCCQYGNVDECLSGGNYCSQNCARHIKDKDQKEERDVEEDNEEEDPKCSRKKKPKLSLKADTKEDGEERDDEMENKQDVRILRGSQRARRKRRGDSAVLKQGLPPKGKKAWCWASYLEEEKAVAVPAKLFKEHQSFPYNKNGFKVGMKLEGVDPEHQSVYCVLTVAEVCGYRIKLHFDGYSDCYDFWVNADALDIHPVGWCEKTGHKLHPPKGYKEEEFNWQTYLKTCKAQAAPKSLFENQNITVIPSGFRVGMKLEAVDKKNPSFICVATVTDMVDNRFLVHFDNWDESYDYWCEASSPHIHPVGWCKEHRRTLITPPGYPNVKHFSWDKYLEETNSLPAPARAFKVKPPHGFQKKMKLEVVDKRNPMFIRVATVADTDDHRVKVHFDGWNNCYDYWIDADSPDIHPVGWCSKTGHPLQPPLSPLELMEASEHGGCSTPGCKGIGHFKRARHLGPHSAANCPYSEINLNKDRIFPDRLSGEMPPASPSFPRNKRTDANESSSSPEIRDQHADDVKEDFEERTESEMRTSHEARGAREEPTVQQAQRRSAVFLSFKSPIPCLPLRWEQQSKLLPTVAGIPASKVSKWSTDEVSEFIQSLPGCEEHGKVFKDEQIDGEAFLLMTQTDIVKIMSIKLGPALKIFNSILMFKAAEKNSHNEL
In the case of B1, in test [2], the binding entry is “binds”.
